In all, about 220,000 compounds went through this assay and about 770 (0.35%) were called active. The inconclusive results got no clear call from the source; some entries with a clear call stand among them for comparison. Cut-off read from the data, not from the text of the source: active = binding response below about 49% or above about 150%; inconclusive = no clear call, values can overlap the other calls; inactive = in between.
Target: Guanine nucleotide-binding protein G(o) subunit alpha (Homo sapiens) (UniProt P09471)
Test: compounds changing RGS7 association with Galphao – biochemical, multiplexed bead flow cytometry, primary screen (AID 1439);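 note: fluorescent Galphao held in activated GDP-AlF4 state binding bead-coupled RGS7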
Conditions: at 10 µM, actives lie on both sides

Sequences of proteins named here, by UniProt entry; tags and fusion partners are left off.
UniProt P09471, whole entry: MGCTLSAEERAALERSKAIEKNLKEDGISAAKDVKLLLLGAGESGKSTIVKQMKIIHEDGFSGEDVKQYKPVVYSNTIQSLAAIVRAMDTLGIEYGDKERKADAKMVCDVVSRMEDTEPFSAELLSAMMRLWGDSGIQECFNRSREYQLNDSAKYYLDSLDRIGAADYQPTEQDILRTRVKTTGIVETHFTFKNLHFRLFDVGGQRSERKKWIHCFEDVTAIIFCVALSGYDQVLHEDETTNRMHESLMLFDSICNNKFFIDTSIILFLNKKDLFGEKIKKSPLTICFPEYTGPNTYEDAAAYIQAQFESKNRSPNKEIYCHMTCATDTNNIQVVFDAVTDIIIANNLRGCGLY

SMILES	binding response (% of control)
COc1ccc(-n2c(-c3ccc(C)cc3)nc3ccccc3c2=O)cc1	inconclusive: 145%
O=C1NC(=S)NC(=O)C1C1CCCCC1	inconclusive: 87.5%
Cc1ccc(S(=O)(=O)N2CCCC2c2cccnc2)cc1 (stereo unspecified)	inconclusive: 121%
CC(C)c1ccc(N=Nc2c(O)[nH]c(=O)[nH]c2=O)cc1	inconclusive: 105%
CCN(CC)S(=O)(=O)c1cc(NC(=O)C(C)N2CC=C(c3ccccc3)CC2)ccc1C (stereo unspecified)	inactive: 102%
Cc1ccc(OCC(=O)N2CCN(C3CCC(c4ccccc4)CC3)CC2)cc1 (stereo unspecified)	inactive: 103%
O=C(N=Nc1c(O)[nH]c(=O)[nH]c1=O)C1COc2cc3ccccc3cc2O1 (stereo unspecified)	inactive: 100%
N#CC1(c2ccccc2)CCN(C2CC(=O)N(c3ccc4c(c3)OCO4)C2=O)CC1 (stereo unspecified)	inconclusive: 96.5%
Cc1c(C(=O)Nc2ccccc2)cc(-c2ccccc2)n1CCCN1CCOCC1	inconclusive: 83%
O=C(O)COc1ccccc1/C=C1\C(=O)NC(=O)N(CCC2=CCCCC2)C1=O	inconclusive: 74.2%
COC(=O)C(O)(c1ccc(NC(=O)c2cccs2)cc1)C(F)(F)F (stereo unspecified)	inconclusive: 136%
CCc1c(C)nc(N)nc1N1N=C1SC(C(C)=O)C(C)=O	inactive: 103%
CC(C(=O)c1c[nH]c2ccccc12)N1CCN(C(=O)c2ccco2)CC1 (stereo unspecified)	inconclusive: 119%
NC1C2CN3CCN(C2)CC1(c1ccccc1)C3 (stereo unspecified)	inconclusive: 115%
COc1ccc(OC)c(-n2c(O)c(C=Nc3c(C)n(C)n(-c4ccccc4)c3=O)c(=O)[nH]c2=S)c1	inconclusive: 106%
Cc1ccc(-n2c(O)c(C=N)c(=O)n(-c3ccc(C)cc3)c2=O)cc1	inconclusive: 103%
O=c1[nH]c(=S)[nH]c(O)c1N=Nc1ccc2c(c1)OCCO2	inconclusive: 110%
O=C(NC1CONC1=O)OCC(Cl)(Cl)Cl (stereo unspecified)	inactive: 101%
CCCCCCn1c(=O)c(C(=O)Nc2c(C)n(C)n(-c3ccccc3)c2=O)c(O)c2ccccc21	inconclusive: 103%
COc1cccc(C2(O)CCN(Cc3ccncc3)CC2)c1	inactive: 96.2%
O=C1CCCC2C3CCCN4CCCC(CN12)C34 (stereo unspecified)	inactive: 100%
Cc1cc(C(=O)NP(=O)(N2CCOCC2)N2CCOCC2)c(C)n1C1CC1	inconclusive: 92.7%
O=S(=O)(c1ccc(Cl)cc1)N1CCCC1c1cccnc1 (stereo unspecified)	inconclusive: 65.5%

SMILES	binding response (% of control)
COc1cc(/C=C/c2nc3ccccc3c(=O)n2-c2cccc(O)c2)ccc1O	inconclusive: 105%
O=S(=O)(c1ccc(Cl)cc1Cl)N1CCCC1c1cccnc1 (stereo unspecified)	inconclusive: 46.6%
Cc1c(N=Cc2c(O)n(C)c(=O)[nH]c2=O)c(=O)n(-c2ccccc2)n1C	inconclusive: 70.7%
Clc1cc(Cl)cc(NC2=NCCS2)c1	inconclusive: 245%
C/C(=N\NC(=O)c1ccccc1)c1c(O)n(Cc2ccccc2)c(=O)[nH]c1=O	inconclusive: 100%
O=c1c2ccccc2nc(/C=C/c2ccco2)n1-c1ccccc1O	inconclusive: 110%
CCC(=O)N1N=C(c2c(O)n(CCc3ccccc3)c(=O)[nH]c2=O)CC1c1ccc(OC)c(OC)c1 (stereo unspecified)	inconclusive: 99.1%
CSc1nc2ccccc2c(=O)n1-c1cccnc1	inconclusive: 81.5%
CC(C)C(=O)Nc1nnc(CCN(CCc2nnc(NC(=O)C(C)C)s2)[N+](=O)[O-])s1	inconclusive: 182%
CC(=NCc1ccc2c(c1)OCO2)c1c(O)n(Cc2ccccc2)c(=O)[nH]c1=O	inconclusive: 106%
O=C(C[N+]12CCC(CC1)C(C(O)(c1ccccc1)c1ccccc1)C2)c1ccc(Br)cc1 (stereo unspecified)	inconclusive: -292%
COc1ccc2c(c1)c(CCN)c(C)n2Cc1ccccc1	inconclusive: 103%
O=C1NC(=O)N(Cc2ccc(F)cc2)C(=O)/C1=C\c1ccoc1	inconclusive: 100%
Cc1cccc(C)c1OP(N)(=O)Oc1c(C)cccc1C	inconclusive: 92.6%
Nc1nonc1OCCCCOc1nonc1N	inconclusive: 112%
C=CCC1(Nc2ccccc2)CC(C)N(C)CC1C (stereo unspecified)	inconclusive: 2.47%
Nc1ccccc1C(=O)OC1CSC1	inactive: 98.7%
Cc1ccc(-n2c(O)c(C=NCc3ccco3)c(=O)[nH]c2=S)cc1C	inconclusive: 100%
CCOC(=O)c1c(-n2c(C)cc(C=C3C(=O)NC(=S)NC3=O)c2C)sc2c1CCCC2	inactive: 93.9%
O=c1c2ccccc2nc(-c2ccco2)n1-c1ccccn1	inactive: 101%
CCCCn1c(=O)c(C(=O)Nc2ccsc2C(=O)OC)c(O)c2ccccc21	inactive: 96.7%
O=P1(Oc2ccccc2)OCCCS1 (stereo unspecified)	inconclusive: 94.1%
c1ccc(NC2=NCCS2)cc1	inconclusive: 82.1%

SMILES	binding response (% of control)
CC(=NCCc1ccccc1)c1c(O)n(C)c(=O)n(C)c1=O	inconclusive: 188%
O=C(N/N=C/c1c(O)n(Cc2ccc(F)cc2)c(=S)[nH]c1=O)c1ccncc1	inconclusive: 298%
Cc1nn(Cc2ccccc2Cl)c(Cl)c1C(=O)O	inconclusive: 91.2%
CCOC(=O)C1=C(N)OC2=C(C(=O)CCC2)C12C(=O)N(C)c1ccccc12 (stereo unspecified)	inconclusive: 84.3%
CN1CCN(c2ccc([N+](=O)[O-])c(SCCO)c2)CC1	inactive: 104%
CN(C)C(CNC(=O)Cc1c(Cl)cccc1Cl)c1ccccc1 (stereo unspecified)	inconclusive: 83.5%
COc1ccc(CNC(=O)/C=C/c2ccc3[nH]cc(CCN(C)C)c3c2)cc1	inconclusive: 99.4%
CCOc1cccc(=NC2CCCCC2)c2c(C)[nH]c(C)c12	inconclusive: 104%
COc1cccc(C2(C#N)CCN(C)CC2)c1	inactive: 96%
[N-]=[N+]=NC1C[C@H](n2ccc(=O)[nH]c2=O)O[C@@H]1CO (stereo partly specified)	inactive: 103%
COC(=O)c1nc(-c2ccc3c(n2)C(=O)C(N)=C(OC)C3=O)c(N)c(-c2ccc(OC)c(OC)c2O)c1C	inconclusive: 104%
CCCCCOc1ccc(C)cc1CN(CCCl)CCCl	inconclusive: 139%
CN1OCC2Cn3c(nc4ccccc43)C21 (stereo unspecified)	inconclusive: 104%
O=c1[nH]c(=O)n(C2CCCCC2)c(O)c1/C=N/N1CCCCC1c1cccnc1 (stereo unspecified)	inconclusive: 108%
COc1cc2c(cc1OC)C(C(=O)N(C)C1CCCCC1)C1CCCCN1C2=O (stereo unspecified)	inactive: 101%
CC(C)=CCC12CN3CCN(CC(C3)C1=O)C2	inactive: 106%
O=C1NC(=S)NC(=O)C1=Cc1cccc2cc3ccccc3cc12	inconclusive: 199%
COc1ccc(/C=C2/C(=O)NC(=O)N(c3ccccc3)C2=O)cc1CN1C(=O)c2ccccc2C1=O	inconclusive: 53.8%
Cc1ccc(S(=O)(=O)N2CCCCC2)cc1NC(=O)CN1CC=C(c2ccccc2)CC1	inactive: 122%
Cc1c(N=Nc2c(O)n(C)c(=O)n(C)c2=O)c(=O)n(-c2ccccc2)n1C	inactive: 66.3%
COC(=O)C(=O)N1CC2(C)CNCC(C)(C1)C2=O	inactive: 95.7%
O=S(=O)(F)c1ccc2nc(-c3cccc(Sc4ccccc4)c3)cc(Cl)c2c1	inconclusive: 160%
Nc1ccccc1-[n+]1c(-c2ccccc2)cc(-c2ccccc2)cc1-c1ccccc1	inconclusive: 53.6%

An excerpt from above in order of heavy-atom count, falling:
SMILES	binding response (% of control)
Nc1ccccc1-[n+]1c(-c2ccccc2)cc(-c2ccccc2)cc1-c1ccccc1	inconclusive: 53.6%
O=C1NC(=S)NC(=O)C1=Cc1cccc2cc3ccccc3cc12	inconclusive: 199%
CC(=NCCc1ccccc1)c1c(O)n(C)c(=O)n(C)c1=O	inconclusive: 188%

(continued)

SMILES	binding response (% of control)
CCOP(=O)(OCC)C(NC(=O)c1cccc([N+](=O)[O-])c1)C(Cl)(Cl)Cl (stereo unspecified)	inconclusive: 64.8%
CCOC(=O)C(O)(c1ccc(NC(=O)NC)cc1)C(F)(F)F (stereo unspecified)	inconclusive: 91.9%
C=CCn1c(O)c(C(CC)=NCCc2ccccc2)c(=O)[nH]c1=O	inactive: 98.1%
c1cncc(C2CCCCN2)c1 (stereo unspecified)	inconclusive: 24.5%
O=C(COc1ccc2ccccc2c1)N1CCN(CC2CC3C=CC2C3)CC1 (stereo unspecified)	inactive: 112%
CCC(=NCCOc1ccc(Cl)cc1)c1c(O)n(C)c(=O)n(C)c1=O	inactive: 132%
Nc1nnc(CCN2CCCCC2)s1	inactive: 99%
CCCc1c(C)nc(SCC(=O)C(C)(C)C)nc1OC(=O)N(C)C	inconclusive: 66.5%
CCOP(=S)(OCC)Oc1cc(C)oc(=O)c1Cl	inconclusive: 478%
CSc1ccc(CN2CCN(C(=O)COc3cccc(C)c3)CC2)cc1	inconclusive: 97.8%
CC(C)OC1CCCC(O)C1CC(=O)O (stereo unspecified)	inconclusive: 96.2%
Cc1[nH]c2ccccc2c1C(=O)C(=O)N1CCC2(CC1)OCCO2	inconclusive: 111%
O=C1CC(=O)N(Cc2ccccc2)C(=O)N1CCCCCCN1C(=O)CC(=O)N(Cc2ccccc2)C1=O	inconclusive: -7.32%
COc1ccc(C2=CC(c3ccc(OC)c(OC)c3)c3c(c4ccccc4oc3=O)O2)cc1OC (stereo unspecified)	inconclusive: 118%
CCN1C(=O)/C(=C/c2ccc(N(CC)CC)cc2OC)C(=O)NC1=S	inactive: 104%
CCOc1ccc(N=Cc2c(O)n(CCc3ccc(OC)c(OC)c3)c(=O)[nH]c2=O)cc1	inconclusive: 99.2%
CC(C)c1ccc(-n2c(O)c(C=NC(CCS(C)=O)C(=O)O)c(=O)[nH]c2=S)cc1 (stereo unspecified)	inconclusive: 347%
CC/C(=N\N1CCCCC1)c1c(O)[nH]c(=O)[nH]c1=O	inconclusive: 120%
Cc1ccc2c(c1)C1CN(C)CCC1N2C(=O)c1cccs1 (stereo unspecified)	inconclusive: 83.9%
CN(C)C(=O)Nc1cccc(OC(=O)N(C)C)c1	active: 281% [activator]
C=CCn1c(O)c(C(C)=Nc2cccc(C(=O)O)c2)c(=O)[nH]c1=O	inconclusive: 84.2%
Cc1ccc(C)c(NC(=S)NCCc2cnc[nH]2)c1	inconclusive: 95.3%

Reference: PubChem BioAssay AID1439 (NMMLSC, 2008)
